The other results are listed elsewhere or left out.
How the values were obtained:
Experiment in all cases: log2 fold change, soluble protein after heating vs DMSO (PISA); higher = thermal stabilisation; K562 lysate, 10 uM; active = over 0.2 and 3.5 SD of the protein, either way, in both replicates (recomputed)
ibrutinib = compound: C=CC(=O)N1CCC[C@@H](n2nc(-c3ccc(Oc4ccccc4)cc3)c3c(N)ncnc32)C1 [ibrutinib]
Procedure, shortened: (§1)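 Thermal stability, expressed as log-two fold change relative to solvent controls, is given from duplicates. Crude K562 extract in PBS pH 7.4 with 1 mM MgCl2, at 1 mg/mL protein, was treated with 10 μM compound for 30 min and heated in aliquots for 3 min across 48°C-58°C. After pooling, adjustment to 0.5% NP-40 at 4°C and centrifugation at 21,000xg for 90 min, supernatant protein was measured by TMTpro 16plex LC-MS/MS with channel sums equalised.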

The chains behind the UniProt entries cited, without tags or fusion partners. Where a name states a change or a piece, a line headed by the entry shows the natural chain unless it says otherwise.
UniProt Q5VWQ0: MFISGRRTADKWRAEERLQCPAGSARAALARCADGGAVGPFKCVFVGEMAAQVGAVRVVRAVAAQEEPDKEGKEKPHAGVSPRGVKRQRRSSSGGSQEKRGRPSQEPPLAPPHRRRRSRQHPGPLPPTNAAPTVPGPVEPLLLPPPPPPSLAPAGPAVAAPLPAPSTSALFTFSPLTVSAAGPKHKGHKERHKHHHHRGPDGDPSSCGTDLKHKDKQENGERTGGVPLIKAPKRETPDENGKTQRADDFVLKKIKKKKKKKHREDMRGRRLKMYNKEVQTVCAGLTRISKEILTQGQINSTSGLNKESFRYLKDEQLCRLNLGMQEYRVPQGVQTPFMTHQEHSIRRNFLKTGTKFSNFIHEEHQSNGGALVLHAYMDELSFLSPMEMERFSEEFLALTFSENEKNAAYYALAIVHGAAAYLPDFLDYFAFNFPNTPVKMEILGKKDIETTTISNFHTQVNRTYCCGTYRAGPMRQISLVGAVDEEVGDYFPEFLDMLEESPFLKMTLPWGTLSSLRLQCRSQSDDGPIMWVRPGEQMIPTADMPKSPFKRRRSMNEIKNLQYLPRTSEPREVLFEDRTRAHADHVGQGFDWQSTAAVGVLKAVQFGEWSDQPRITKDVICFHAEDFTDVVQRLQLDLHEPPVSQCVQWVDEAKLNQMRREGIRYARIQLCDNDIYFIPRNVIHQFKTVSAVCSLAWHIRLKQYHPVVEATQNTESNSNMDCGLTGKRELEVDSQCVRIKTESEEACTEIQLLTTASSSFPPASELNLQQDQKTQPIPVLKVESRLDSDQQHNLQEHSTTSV
UniProt Q7L099: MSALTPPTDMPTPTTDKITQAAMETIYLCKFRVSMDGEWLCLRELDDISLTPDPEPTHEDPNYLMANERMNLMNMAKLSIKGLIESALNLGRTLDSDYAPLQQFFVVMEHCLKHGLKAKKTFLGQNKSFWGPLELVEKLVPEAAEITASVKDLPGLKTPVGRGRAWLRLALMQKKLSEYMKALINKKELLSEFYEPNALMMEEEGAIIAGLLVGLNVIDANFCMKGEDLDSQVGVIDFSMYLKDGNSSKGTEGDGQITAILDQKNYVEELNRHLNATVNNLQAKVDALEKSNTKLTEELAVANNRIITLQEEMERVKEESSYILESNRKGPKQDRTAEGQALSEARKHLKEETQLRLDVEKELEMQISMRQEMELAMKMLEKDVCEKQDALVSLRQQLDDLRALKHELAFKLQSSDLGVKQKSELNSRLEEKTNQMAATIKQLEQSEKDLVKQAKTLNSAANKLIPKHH
UniProt Q9Y3I0: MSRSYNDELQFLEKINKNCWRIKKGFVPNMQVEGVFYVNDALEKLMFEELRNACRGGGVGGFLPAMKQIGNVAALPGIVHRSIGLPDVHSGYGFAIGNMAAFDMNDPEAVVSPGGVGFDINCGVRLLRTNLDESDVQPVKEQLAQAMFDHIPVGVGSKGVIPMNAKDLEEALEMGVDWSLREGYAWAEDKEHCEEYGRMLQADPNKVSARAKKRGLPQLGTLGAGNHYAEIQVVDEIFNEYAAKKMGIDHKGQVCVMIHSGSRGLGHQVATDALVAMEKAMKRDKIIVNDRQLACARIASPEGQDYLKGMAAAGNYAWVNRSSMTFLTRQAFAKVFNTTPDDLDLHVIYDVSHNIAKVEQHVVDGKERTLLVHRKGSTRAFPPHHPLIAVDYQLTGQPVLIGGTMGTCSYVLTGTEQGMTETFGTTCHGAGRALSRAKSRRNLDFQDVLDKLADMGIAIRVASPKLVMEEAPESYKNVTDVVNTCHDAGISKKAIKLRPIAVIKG
UniProt Q9Y224: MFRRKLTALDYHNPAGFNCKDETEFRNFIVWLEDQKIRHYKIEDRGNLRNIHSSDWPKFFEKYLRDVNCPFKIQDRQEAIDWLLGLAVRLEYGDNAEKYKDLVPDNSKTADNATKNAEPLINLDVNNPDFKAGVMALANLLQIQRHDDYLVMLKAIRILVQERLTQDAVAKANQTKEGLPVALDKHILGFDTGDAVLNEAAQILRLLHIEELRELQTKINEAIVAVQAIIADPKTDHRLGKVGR
UniProt Q9Y3B9: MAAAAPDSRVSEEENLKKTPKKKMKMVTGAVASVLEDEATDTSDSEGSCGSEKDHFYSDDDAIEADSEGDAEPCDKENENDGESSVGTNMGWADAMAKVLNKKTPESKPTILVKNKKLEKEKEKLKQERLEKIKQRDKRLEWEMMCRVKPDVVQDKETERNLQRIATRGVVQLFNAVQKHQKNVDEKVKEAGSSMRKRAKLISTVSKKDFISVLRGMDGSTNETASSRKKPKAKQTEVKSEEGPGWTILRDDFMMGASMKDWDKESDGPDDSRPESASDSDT
UniProt Q8N122, whole entry, looked up: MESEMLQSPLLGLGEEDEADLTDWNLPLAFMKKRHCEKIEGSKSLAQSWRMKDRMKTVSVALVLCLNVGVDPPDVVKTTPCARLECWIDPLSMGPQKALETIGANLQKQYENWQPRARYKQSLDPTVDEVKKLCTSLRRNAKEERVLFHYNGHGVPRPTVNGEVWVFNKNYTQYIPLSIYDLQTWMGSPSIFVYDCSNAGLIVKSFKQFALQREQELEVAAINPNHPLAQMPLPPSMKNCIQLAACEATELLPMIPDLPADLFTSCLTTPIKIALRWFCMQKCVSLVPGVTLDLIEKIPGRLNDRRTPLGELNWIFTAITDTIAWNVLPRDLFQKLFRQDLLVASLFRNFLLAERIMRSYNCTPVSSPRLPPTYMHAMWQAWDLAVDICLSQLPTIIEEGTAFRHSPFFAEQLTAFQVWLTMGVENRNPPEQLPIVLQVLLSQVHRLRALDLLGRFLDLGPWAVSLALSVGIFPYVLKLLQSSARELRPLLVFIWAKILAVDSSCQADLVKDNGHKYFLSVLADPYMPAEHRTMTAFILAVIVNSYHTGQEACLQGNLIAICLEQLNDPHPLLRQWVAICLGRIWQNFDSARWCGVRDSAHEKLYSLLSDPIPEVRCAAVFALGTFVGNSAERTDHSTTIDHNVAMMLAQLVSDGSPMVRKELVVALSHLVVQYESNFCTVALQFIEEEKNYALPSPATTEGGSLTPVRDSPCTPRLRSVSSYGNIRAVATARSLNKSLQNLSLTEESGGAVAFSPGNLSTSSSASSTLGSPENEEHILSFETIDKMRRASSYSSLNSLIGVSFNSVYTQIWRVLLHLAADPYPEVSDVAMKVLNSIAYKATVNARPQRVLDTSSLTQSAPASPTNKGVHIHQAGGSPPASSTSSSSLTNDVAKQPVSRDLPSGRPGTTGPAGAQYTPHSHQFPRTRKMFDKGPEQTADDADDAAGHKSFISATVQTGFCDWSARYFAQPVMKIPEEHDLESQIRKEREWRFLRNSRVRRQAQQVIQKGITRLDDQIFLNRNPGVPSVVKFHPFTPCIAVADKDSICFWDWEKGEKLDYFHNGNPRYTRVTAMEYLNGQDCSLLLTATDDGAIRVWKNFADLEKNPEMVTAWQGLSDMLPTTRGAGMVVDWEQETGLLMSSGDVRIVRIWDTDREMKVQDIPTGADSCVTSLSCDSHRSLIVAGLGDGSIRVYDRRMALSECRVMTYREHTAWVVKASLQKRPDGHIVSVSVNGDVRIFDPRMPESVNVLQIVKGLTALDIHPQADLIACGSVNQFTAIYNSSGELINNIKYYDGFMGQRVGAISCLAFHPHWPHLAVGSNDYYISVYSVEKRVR
UniProt P23443: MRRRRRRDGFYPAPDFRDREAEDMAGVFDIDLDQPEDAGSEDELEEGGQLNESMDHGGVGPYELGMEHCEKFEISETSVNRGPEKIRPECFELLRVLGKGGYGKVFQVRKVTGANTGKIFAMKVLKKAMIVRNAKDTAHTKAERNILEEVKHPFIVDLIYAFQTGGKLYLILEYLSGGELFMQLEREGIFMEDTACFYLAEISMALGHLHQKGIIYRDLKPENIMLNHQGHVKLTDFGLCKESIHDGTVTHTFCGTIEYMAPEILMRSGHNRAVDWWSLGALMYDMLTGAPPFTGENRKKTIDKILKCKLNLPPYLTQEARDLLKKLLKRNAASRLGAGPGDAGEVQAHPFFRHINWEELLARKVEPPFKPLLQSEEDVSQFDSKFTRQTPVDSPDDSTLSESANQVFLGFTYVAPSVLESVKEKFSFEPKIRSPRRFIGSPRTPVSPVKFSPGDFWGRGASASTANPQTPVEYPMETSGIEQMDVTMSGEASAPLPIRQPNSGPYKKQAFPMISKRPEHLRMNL
UniProt P05387, whole entry, looked up: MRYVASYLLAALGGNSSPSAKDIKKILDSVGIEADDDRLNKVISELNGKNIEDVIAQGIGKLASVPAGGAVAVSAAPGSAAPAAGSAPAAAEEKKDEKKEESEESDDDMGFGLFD
UniProt Q96T51: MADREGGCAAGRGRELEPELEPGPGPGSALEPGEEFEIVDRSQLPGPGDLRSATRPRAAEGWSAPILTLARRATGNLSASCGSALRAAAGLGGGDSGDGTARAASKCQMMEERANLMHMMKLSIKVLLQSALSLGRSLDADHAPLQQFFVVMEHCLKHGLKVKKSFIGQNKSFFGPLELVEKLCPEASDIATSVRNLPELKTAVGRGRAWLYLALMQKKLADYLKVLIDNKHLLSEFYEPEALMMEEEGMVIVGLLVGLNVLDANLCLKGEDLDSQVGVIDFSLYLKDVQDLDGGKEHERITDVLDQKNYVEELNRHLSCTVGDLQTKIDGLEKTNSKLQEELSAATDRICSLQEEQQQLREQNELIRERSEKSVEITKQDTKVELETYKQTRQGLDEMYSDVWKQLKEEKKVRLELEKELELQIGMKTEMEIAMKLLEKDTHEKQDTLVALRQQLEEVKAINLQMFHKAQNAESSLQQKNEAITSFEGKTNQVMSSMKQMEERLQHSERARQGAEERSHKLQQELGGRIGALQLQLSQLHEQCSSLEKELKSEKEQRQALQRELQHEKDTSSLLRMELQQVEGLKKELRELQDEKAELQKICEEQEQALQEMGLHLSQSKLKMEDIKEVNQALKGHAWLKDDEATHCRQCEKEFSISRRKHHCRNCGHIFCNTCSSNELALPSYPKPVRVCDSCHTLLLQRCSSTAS
UniProt Q8IZ73: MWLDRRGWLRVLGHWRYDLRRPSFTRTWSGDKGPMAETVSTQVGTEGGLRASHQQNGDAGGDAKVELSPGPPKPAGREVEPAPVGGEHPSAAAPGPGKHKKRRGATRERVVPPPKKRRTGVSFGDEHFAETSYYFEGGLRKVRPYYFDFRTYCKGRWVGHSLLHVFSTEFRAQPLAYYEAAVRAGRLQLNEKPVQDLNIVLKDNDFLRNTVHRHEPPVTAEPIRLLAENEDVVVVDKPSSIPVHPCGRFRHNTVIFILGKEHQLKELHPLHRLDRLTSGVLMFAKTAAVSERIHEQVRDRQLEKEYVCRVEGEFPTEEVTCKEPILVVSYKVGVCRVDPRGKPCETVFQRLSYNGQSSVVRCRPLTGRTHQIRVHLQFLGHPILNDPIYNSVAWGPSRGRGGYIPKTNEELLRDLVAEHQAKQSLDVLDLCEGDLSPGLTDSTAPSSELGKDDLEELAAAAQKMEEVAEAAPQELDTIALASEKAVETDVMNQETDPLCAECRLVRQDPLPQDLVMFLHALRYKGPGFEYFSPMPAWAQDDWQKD
UniProt P78346: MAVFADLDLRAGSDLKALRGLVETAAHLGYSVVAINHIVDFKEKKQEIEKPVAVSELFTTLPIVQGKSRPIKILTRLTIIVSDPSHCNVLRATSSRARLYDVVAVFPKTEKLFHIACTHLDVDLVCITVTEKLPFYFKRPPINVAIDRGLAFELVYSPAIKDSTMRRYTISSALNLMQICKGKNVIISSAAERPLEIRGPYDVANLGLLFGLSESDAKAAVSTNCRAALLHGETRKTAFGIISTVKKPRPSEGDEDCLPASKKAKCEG
UniProt P05386, whole entry, looked up: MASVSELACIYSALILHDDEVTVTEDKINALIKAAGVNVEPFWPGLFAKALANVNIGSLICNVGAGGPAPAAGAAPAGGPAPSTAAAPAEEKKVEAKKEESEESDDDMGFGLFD
UniProt P10301: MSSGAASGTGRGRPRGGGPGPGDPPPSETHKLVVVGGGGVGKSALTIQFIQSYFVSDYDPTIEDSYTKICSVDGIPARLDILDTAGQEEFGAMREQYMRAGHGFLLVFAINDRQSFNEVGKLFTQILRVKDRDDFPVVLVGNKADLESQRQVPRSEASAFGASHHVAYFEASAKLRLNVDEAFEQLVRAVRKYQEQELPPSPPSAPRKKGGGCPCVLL
UniProt Q5VZM2, whole entry, looked up: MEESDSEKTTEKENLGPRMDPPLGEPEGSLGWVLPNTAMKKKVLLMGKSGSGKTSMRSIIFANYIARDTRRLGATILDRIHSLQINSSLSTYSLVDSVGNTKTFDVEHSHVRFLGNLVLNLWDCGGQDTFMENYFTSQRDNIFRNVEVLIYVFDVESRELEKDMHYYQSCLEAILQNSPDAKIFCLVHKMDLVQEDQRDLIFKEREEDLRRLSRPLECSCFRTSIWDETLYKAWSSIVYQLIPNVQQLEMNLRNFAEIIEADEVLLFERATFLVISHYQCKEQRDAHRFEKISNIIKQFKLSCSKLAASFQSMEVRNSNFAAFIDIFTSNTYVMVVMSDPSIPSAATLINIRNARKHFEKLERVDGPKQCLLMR

[1] = compound: CC(=O)c1cnc2ccc(-c3cc(Cl)c(O)c(Cl)c3)nc2c1N[C@H]1CC[C@H](CN(C)C)CC1
Procedure, shortened: as §1

ralimetinib = compound: CC(C)(C)Cn1c(N)nc2ccc(-c3[nH]c(C(C)(C)C)nc3-c3ccc(F)cc3)nc21 [ralimetinib]
Procedure, shortened: as §1

[2] = compound: CC(C)(O)CC(=O)NCCn1ccc2ncnc(Nc3ccc(Oc4cccc(C(F)(F)F)c4)c(Cl)c3)c21
Procedure, shortened: as §1

[3] = compound: CC(C)C1=C2N=C(C=C(N2N=C1)NCC3=CC=CC=C3)NCCCCCCN
Procedure, shortened: as §1

[4] = compound: CC1=C(C(CC(=O)N1)C2=CC=C(C=C2)C(F)(F)F)C(=O)NC3=C(C=C4C(=C3)C=NN4)F
Procedure, shortened: as §1

[5] = compound: CC1=C(C2=C(C=C1)C(=O)C3=CC=CC=C3N2CCCN)C
Procedure, shortened: as §1

[6] = compound: CC1=C(C=C(C=C1)NC(=O)C2=CC(=CC=C2)C(C)(C)C#N)NC3=CC4=C(C=C3)N=CN(C4=O)C
Procedure, shortened: as §1

[7] = compound: CC1=C(C=C(C=C1)NC(=O)C2=CC(=CC=C2)N(C)C)NC(=O)C3=CC=C(C=C3)O
Procedure, shortened: as §1

[8] = compound: CC1=CC=C(C=C1)SC2=C3C=C(SC3=CN=C2)C(=O)N
Procedure, shortened: as §1

Target | log2 fold change (ibrutinib) | log2 fold change [1] | log2 fold change (ralimetinib) | log2 fold change [2] | log2 fold change [3] | log2 fold change [4] | log2 fold change [5] | log2 fold change [6] | log2 fold change [7] | log2 fold change [8]
RRP12 (UniProt Q5JTH9) | inactive: 0.018 | inactive: -0.009 | inactive: 0.002 | inactive: -0.012 | inactive: 0.02 | inactive: 0.025 | inactive: -0.056 | inactive: 0.019 | inactive: 0.057 | inactive: 0.064
RSBN1 (UniProt Q5VWQ0) | inactive: -0.016 | inactive: -0.01 | inactive: 0.055 | inactive: -0.014 | inactive: 0 | inactive: -0.036 | inactive: -0.017 | inactive: 0.043 | inactive: 0.002 | inactive: 0.026
RUFY3 isoform 3 (UniProt Q7L099) | inactive: 0.016 | inactive: 0.008 | inactive: 0.019 | inactive: -0.054 | inactive: 0.003 | inactive: -0.009 | inactive: 0.006 | inactive: 0.003 | inactive: -0.002 | inactive: -0.034
RTCB (UniProt Q9Y3I0) | inactive: 0.015 | inactive: 0.022 | inactive: 0.015 | inactive: 0.024 | inactive: 0.007 | inactive: -0.011 | inactive: 0.013 | inactive: -0.056 | inactive: 0.017 | inactive: 0.04
RPS6KA1 (UniProt Q15418) | inactive: 0.047 | active: 0.555 | inactive: 0.32 | inactive: -0.077 | inactive: -0.011 | inactive: -0.032 | inactive: -0.035 | inactive: -0.043 | inactive: -0.052 | inactive: -0.023
RPS7 (UniProt P62081) | inactive: 0.01 | inactive: 0 | inactive: -0.055 | inactive: -0.003 | inactive: 0.035 | inactive: -0.009 | inactive: -0.109 | inactive: -0.036 | inactive: 0.019 | inactive: 0.018
RTRAF (UniProt Q9Y224) | inactive: 0.144 | inactive: 0.033 | inactive: -0.002 | inactive: 0.029 | inactive: 0 | inactive: -0.018 | inactive: 0.011 | inactive: -0.019 | inactive: -0.025 | inactive: 0.005
RPS26 (UniProt P62854) | inactive: -0.046 | inactive: 0 | inactive: 0.002 | inactive: -0.052 | inactive: 0.007 | inactive: 0.058 | inactive: -0.089 | inactive: 0.033 | inactive: 0.012 | inactive: 0.06
RPRD1A (UniProt Q96P16) | inactive: 0.073 | inactive: 0.047 | inactive: 0.058 | inactive: -0.047 | inactive: 0.048 | inactive: -0.033 | inactive: 0.007 | inactive: 0.019 | inactive: 0.005 | inactive: -0.001
RRP15 (UniProt Q9Y3B9) | inactive: 0.1 | inactive: 0.007 | inactive: 0.007 | inactive: 0.007 | inactive: -0.018 | inactive: -0.026 | inactive: -0.001 | inactive: 0.045 | inactive: -0.018 | inactive: -0.053
RPTOR (UniProt Q8N122) | inactive: -0.042 | inactive: 0.008 | inactive: -0.001 | inactive: -0.045 | inactive: -0.012 | inactive: 0.005 | inactive: -0.039 | inactive: 0.005 | inactive: 0.038 | inactive: 0.01
RPL37A (UniProt P61513) | inactive: -0.005 | inactive: 0.002 | inactive: -0.041 | inactive: 0.03 | inactive: -0.009 | inactive: -0.021 | inactive: -0.032 | inactive: 0.038 | inactive: 0.004 | inactive: 0.051
RPS6KB1 (UniProt P23443) | inactive: 0.024 | active: 0.355 | inactive: 0.026 | inactive: 0.007 | inactive: -0.027 | inactive: 0 | inactive: 0.01 | inactive: -0.029 | inactive: -0.01 | inactive: -0.001
RSBN1L (UniProt Q6PCB5) | inactive: 0.007 | inactive: -0.029 | inactive: -0.001 | inactive: -0.02 | inactive: 0.004 | inactive: 0.028 | inactive: -0.059 | inactive: 0.026 | inactive: 0.008 | inactive: -0.03
RPS6 (UniProt P62753) | inactive: -0.039 | inactive: -0.021 | inactive: -0.04 | inactive: -0.024 | inactive: -0.016 | inactive: 0 | inactive: -0.063 | inactive: -0.022 | inactive: 0.003 | inactive: 0.023
RPL6 (UniProt Q02878) | inactive: -0.008 | inactive: 0.014 | inactive: -0.004 | inactive: 0.004 | inactive: 0.009 | inactive: -0.052 | inactive: -0.023 | inactive: 0.003 | inactive: -0.026 | inactive: 0.047
RPS9 (UniProt P46781) | inactive: -0.02 | inactive: 0.015 | inactive: 0.016 | inactive: 0.026 | inactive: -0.007 | inactive: -0.038 | inactive: -0.095 | inactive: -0.048 | inactive: 0.006 | inactive: 0.043
RPS4X (UniProt P62701) | inactive: 0 | inactive: -0.003 | inactive: 0.009 | inactive: -0.021 | inactive: 0.022 | inactive: -0.026 | inactive: -0.116 | inactive: -0.008 | inactive: -0.001 | inactive: 0.034
RPS12 (UniProt P25398) | inactive: -0.012 | inactive: 0.018 | inactive: -0.035 | inactive: -0.004 | inactive: -0.003 | inactive: -0.023 | inactive: 0.021 | inactive: 0 | inactive: 0.004 | inactive: 0
RPLP2 (UniProt P05387) | inactive: 0.066 | inactive: -0.026 | inactive: -0.006 | inactive: -0.015 | inactive: 0.014 | inactive: -0.016 | inactive: -0.025 | inactive: 0.006 | inactive: 0.016 | inactive: 0.043
RPL7A (UniProt P62424) | inactive: -0.046 | inactive: 0.007 | inactive: -0.007 | inactive: -0.025 | inactive: -0.003 | inactive: -0.038 | inactive: -0.016 | inactive: -0.029 | inactive: -0.011 | inactive: 0.018
RUFY1 (UniProt Q96T51) | inactive: -0.008 | inactive: -0.001 | inactive: 0.002 | inactive: -0.04 | inactive: -0.032 | inactive: 0.004 | inactive: 0.002 | inactive: 0.012 | inactive: 0.017 | inactive: -0.029
RPUSD2 (UniProt Q8IZ73) | inactive: 0.009 | inactive: 0.003 | inactive: -0.009 | inactive: -0.007 | inactive: -0.028 | inactive: 0.003 | inactive: -0.021 | inactive: 0.016 | inactive: -0.029 | inactive: -0.024
RPP30 isoform 2 (UniProt P78346) | inactive: 0.013 | inactive: -0.003 | inactive: 0.018 | inactive: -0.056 | inactive: -0.022 | inactive: 0.004 | inactive: -0.011 | inactive: -0.015 | inactive: 0.002 | inactive: -0.01
RPS19 (UniProt P39019) | inactive: -0.004 | inactive: 0.013 | inactive: 0.002 | inactive: -0.003 | inactive: 0.029 | inactive: -0.03 | inactive: -0.008 | inactive: -0.026 | inactive: -0.01 | inactive: 0.021
RPLP1 (UniProt P05386) | inactive: 0.041 | inactive: -0.087 | inactive: 0.008 | inactive: -0.097 | inactive: 0.043 | inactive: -0.022 | inactive: 0.011 | inactive: 0.049 | inactive: 0.004 | inactive: 0.118
RRP1B (UniProt Q14684) | inactive: 0.075 | inactive: -0.019 | inactive: 0.04 | inactive: 0.022 | inactive: 0.023 | inactive: -0.008 | inactive: -0.098 | inactive: -0.033 | inactive: 0.044 | inactive: 0.025
RPRD1B (UniProt Q9NQG5) | inactive: -0.017 | inactive: 0.026 | inactive: 0.04 | inactive: 0.07 | inactive: -0.011 | inactive: 0.043 | inactive: 0.006 | inactive: -0.055 | inactive: -0.023 | inactive: 0.005
RRAS (UniProt P10301) | inactive: 0.023 | inactive: 0.041 | inactive: 0.041 | inactive: 0.026 | inactive: -0.026 | inactive: 0.001 | inactive: 0.081 | inactive: 0.015 | inactive: 0.048 | inactive: -0.017
RRAGB (UniProt Q5VZM2) | inactive: -0.008 | inactive: -0.022 | inactive: 0.034 | inactive: -0.034 | inactive: 0.008 | inactive: -0.021 | inactive: -0.043 | inactive: -0.006 | inactive: 0.003 | inactive: -0.015

Random excerpt: two records from the list
Target | log2 fold change (ibrutinib) | log2 fold change [1] | log2 fold change (ralimetinib) | log2 fold change [2] | log2 fold change [3] | log2 fold change [4] | log2 fold change [5] | log2 fold change [6] | log2 fold change [7] | log2 fold change [8]
RPS9 (UniProt P46781) | inactive: -0.02 | inactive: 0.015 | inactive: 0.016 | inactive: 0.026 | inactive: -0.007 | inactive: -0.038 | inactive: -0.095 | inactive: -0.048 | inactive: 0.006 | inactive: 0.043
RPS7 (UniProt P62081) | inactive: 0.01 | inactive: 0 | inactive: -0.055 | inactive: -0.003 | inactive: 0.035 | inactive: -0.009 | inactive: -0.109 | inactive: -0.036 | inactive: 0.019 | inactive: 0.018

From the supplement of paper PMC10849652
